Assay: general procedure: peptide synthesis; EDC with HOAt and/or 2-HOPO, 2,4,6-collidine
Details: sodium salt; for crude HPLC purity / conjugation yield: conjugation step; for crude HPLC purity: HPLC area % (LCAP); for step yield: assay yield

Substance	crude HPLC purity (piperidinium salt, free acid, run 1) [A %]	crude HPLC purity (piperidinium salt, free acid, run 2) [A %]	conjugation yield (corrected for purity, piperidinium salt, free acid, run 1) [%]	conjugation yield (corrected for purity, piperidinium salt, free acid, run 2) [%]	conjugation yield (uncorrected for purity, piperidinium salt, free acid) [%]	step yield (late stage modification step) [%]	step yield (purification step, piperidinium salt, free acid, run 1) [%]	step yield (purification step, piperidinium salt, free acid, run 2) [%]
[N-Glutaryl(OFm)-(4-trans-L-Hyp)]-Ala-Ser-Chg-Gln-Ser-Leu-Dox	91.5	89.7	86	90.0	95.6			
[N-Glutaryl-(4-trans-L-Hyp)]-Ala-Ser-Chg-Gln-Ser-Leu-Dox Sodium salt						85	91	94

From patent publication US6355611B1 (Merck & Co., Inc., priority 1999, dated 2002)
